Measured values as given in the supplement of paper PMC10849652.
This is one part of the list.

Amino acid sequences for entries named in this document (tags omitted). A change or cut given only in a name is not applied to a line headed by its entry.
UniProt Q13162: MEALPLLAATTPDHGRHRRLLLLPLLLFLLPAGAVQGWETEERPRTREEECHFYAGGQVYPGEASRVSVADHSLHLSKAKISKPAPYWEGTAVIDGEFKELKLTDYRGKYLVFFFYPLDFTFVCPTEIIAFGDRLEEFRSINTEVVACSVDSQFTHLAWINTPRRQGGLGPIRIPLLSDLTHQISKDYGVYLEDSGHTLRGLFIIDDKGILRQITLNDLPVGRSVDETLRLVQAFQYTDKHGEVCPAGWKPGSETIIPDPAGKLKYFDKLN
UniProt Q5H9R7: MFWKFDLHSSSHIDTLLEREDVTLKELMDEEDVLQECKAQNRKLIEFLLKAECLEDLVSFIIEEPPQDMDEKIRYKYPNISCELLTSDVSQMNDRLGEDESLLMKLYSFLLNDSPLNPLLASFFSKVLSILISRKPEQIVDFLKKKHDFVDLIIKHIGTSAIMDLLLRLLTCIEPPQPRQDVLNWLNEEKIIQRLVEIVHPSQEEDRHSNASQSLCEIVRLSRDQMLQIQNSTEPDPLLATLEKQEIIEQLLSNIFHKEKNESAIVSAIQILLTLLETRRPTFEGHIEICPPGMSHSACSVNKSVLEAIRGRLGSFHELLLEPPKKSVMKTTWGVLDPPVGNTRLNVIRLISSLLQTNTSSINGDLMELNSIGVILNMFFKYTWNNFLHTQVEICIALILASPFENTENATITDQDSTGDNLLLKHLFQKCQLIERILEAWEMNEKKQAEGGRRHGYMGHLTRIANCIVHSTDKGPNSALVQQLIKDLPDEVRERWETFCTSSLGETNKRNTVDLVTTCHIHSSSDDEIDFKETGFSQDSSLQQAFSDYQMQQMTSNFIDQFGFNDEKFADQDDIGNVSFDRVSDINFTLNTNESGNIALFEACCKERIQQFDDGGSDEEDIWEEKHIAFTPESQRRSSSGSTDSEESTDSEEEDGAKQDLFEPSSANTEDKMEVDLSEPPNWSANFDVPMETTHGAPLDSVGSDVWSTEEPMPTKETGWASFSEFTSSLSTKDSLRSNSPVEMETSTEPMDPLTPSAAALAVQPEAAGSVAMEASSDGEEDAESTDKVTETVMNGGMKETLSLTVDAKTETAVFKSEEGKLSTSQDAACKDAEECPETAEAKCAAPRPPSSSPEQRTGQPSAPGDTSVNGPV
UniProt P78395, whole entry, looked up: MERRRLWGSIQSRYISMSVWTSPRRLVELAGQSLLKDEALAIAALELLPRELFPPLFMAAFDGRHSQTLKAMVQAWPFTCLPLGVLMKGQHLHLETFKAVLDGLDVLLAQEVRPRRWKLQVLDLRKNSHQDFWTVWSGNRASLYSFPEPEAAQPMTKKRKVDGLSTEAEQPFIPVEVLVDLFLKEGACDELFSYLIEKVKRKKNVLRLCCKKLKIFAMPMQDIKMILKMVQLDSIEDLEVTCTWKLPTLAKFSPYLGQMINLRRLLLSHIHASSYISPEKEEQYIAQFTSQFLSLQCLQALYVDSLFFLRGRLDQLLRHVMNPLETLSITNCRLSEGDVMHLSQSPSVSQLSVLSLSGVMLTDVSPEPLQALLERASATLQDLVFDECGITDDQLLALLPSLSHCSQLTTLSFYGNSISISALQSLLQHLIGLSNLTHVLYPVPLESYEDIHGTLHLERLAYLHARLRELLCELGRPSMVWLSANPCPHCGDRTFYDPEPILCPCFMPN
UniProt Q9Y570: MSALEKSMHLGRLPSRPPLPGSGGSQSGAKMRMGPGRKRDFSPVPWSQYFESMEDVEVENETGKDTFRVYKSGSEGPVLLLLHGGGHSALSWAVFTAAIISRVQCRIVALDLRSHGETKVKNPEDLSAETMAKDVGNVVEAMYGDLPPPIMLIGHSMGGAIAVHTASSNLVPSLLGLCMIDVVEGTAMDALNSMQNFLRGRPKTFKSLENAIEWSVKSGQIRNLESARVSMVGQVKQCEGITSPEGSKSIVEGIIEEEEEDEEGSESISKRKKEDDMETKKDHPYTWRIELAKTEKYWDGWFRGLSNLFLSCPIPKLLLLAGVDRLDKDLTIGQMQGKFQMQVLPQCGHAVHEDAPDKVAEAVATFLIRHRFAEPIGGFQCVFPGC
UniProt Q6NYC8: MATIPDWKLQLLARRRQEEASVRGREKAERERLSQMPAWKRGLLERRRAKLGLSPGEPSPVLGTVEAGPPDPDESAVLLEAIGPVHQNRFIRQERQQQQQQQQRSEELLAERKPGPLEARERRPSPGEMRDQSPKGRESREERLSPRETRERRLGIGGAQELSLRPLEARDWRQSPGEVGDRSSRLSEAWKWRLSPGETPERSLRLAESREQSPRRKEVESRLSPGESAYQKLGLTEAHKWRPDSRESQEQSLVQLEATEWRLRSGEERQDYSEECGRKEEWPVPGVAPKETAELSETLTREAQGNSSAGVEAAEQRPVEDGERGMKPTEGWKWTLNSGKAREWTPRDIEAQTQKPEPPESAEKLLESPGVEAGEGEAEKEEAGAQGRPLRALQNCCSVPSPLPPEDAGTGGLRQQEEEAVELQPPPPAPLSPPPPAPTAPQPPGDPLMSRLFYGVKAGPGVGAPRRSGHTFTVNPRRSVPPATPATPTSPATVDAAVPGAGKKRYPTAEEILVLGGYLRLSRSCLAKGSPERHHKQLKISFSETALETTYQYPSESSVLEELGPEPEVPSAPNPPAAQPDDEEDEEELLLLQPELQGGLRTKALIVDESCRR
UniProt P62140, whole entry, looked up: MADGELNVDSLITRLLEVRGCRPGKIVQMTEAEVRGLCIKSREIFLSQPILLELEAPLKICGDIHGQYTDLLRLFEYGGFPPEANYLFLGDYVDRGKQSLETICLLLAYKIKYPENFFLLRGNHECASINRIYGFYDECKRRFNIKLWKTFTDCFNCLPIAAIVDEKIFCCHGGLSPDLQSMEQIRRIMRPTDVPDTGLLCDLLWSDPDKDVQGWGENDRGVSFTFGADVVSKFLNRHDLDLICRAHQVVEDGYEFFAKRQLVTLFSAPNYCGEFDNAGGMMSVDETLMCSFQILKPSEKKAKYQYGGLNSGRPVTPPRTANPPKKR
UniProt Q9Y520: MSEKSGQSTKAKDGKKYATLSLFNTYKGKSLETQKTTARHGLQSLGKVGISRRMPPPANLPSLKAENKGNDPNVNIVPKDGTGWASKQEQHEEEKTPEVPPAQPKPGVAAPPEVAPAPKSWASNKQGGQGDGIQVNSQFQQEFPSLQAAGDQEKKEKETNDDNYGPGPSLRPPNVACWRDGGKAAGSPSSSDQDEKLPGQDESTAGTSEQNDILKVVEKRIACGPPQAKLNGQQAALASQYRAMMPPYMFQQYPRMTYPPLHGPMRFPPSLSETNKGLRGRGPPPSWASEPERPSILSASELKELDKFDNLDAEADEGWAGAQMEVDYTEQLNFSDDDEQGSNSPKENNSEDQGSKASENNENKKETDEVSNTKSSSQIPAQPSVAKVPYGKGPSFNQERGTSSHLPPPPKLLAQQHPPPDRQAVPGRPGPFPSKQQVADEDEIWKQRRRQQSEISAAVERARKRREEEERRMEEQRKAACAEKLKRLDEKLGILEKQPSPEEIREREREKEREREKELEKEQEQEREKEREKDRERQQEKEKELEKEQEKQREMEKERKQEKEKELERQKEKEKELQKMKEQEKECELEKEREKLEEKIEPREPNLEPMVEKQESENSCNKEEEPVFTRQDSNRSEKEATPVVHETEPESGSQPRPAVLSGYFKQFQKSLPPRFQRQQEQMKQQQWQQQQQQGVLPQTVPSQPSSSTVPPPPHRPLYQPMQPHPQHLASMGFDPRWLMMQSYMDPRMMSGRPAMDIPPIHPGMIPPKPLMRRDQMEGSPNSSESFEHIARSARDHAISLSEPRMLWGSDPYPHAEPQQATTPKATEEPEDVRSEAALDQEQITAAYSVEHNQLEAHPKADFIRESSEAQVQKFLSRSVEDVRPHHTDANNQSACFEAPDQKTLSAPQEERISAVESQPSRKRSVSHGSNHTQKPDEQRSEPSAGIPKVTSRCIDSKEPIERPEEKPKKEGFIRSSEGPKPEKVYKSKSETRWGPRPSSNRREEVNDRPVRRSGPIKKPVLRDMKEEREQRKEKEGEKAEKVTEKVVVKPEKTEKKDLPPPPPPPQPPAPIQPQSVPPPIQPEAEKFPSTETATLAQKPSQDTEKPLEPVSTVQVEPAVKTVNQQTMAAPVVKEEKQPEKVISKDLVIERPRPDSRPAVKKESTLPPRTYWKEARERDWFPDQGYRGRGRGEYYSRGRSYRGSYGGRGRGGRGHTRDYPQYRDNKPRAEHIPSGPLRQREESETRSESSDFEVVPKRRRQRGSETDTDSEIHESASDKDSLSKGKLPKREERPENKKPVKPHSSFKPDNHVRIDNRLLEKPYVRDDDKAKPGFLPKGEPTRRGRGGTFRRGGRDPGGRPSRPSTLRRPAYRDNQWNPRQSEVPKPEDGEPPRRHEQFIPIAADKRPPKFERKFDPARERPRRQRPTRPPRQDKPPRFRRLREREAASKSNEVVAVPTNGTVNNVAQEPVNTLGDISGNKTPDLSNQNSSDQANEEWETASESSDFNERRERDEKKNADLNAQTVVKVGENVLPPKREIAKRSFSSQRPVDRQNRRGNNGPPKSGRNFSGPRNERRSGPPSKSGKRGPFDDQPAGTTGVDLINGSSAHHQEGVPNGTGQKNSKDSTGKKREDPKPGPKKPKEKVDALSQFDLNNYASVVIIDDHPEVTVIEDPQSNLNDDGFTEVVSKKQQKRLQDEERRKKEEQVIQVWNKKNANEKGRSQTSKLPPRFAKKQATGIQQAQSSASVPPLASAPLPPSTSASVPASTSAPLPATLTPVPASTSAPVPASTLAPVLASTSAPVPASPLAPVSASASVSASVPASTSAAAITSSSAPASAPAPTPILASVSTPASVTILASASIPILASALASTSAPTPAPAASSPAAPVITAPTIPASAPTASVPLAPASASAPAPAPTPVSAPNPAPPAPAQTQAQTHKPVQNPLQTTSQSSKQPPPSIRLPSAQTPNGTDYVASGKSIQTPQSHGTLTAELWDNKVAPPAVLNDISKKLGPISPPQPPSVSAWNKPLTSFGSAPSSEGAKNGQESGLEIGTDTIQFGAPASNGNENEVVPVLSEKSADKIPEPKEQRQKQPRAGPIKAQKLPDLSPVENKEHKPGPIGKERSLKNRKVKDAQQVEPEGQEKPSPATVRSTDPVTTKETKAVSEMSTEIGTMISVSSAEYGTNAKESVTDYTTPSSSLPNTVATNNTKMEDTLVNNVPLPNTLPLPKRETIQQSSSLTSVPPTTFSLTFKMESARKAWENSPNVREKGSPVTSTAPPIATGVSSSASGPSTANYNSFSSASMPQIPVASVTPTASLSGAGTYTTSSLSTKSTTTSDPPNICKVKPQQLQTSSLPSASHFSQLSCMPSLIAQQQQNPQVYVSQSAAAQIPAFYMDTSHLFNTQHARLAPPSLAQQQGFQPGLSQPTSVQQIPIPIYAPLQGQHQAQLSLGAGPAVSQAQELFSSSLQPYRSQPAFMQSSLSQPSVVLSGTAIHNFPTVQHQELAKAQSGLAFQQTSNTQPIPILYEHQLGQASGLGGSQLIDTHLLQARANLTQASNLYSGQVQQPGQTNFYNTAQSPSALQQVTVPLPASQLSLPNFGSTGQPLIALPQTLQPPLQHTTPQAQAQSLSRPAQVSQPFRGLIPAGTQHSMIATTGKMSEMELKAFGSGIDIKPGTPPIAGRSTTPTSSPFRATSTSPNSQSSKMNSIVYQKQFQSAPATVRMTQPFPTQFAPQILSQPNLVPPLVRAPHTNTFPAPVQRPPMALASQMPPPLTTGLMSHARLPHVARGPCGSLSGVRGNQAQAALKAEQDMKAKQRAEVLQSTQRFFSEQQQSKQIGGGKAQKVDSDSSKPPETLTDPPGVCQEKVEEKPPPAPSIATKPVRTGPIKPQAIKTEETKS
UniProt P41743, whole entry, looked up: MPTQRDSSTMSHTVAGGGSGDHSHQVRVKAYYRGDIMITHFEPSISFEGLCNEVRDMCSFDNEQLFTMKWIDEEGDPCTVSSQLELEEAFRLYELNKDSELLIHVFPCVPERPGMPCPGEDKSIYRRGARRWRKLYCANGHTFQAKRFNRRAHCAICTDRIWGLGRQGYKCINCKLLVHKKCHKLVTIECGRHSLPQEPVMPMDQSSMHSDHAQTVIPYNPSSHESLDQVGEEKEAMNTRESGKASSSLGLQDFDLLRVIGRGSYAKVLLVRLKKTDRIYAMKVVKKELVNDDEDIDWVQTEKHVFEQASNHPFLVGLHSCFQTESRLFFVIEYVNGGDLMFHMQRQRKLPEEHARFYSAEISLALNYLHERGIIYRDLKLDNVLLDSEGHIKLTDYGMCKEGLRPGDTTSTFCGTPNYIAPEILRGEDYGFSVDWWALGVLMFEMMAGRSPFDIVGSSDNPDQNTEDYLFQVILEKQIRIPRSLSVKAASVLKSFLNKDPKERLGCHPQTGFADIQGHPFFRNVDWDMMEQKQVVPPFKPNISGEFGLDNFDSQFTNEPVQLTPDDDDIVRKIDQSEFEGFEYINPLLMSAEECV

How the values were obtained:
Experiment in all cases: log2 fold change, soluble protein after heating vs DMSO (PISA); higher = thermal stabilisation; K562 cells, 10 uM, 30 min; active = over 0.2 and 3.5 SD of the protein, either way, in both replicates (recomputed)
[1] = compound: CC[C@@H]1C(=O)N(C)c2cnc(Nc3ccc(C(=O)NC4CCN(C)CC4)cc3OC)nc2N1C1CCCC1
Summary of the method: (§1)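 K562 cells at 2×10^6 cells/mL were treated for 30 min with 10 μM compound, and aliquots were heated for 3 min over 48°C-58°C before pooling. Extraction used PBS with 0.5% NP-40 at 4°C, and soluble protein was the supernatant after 21,000xg for 90 min, measured by TMTpro 16plex LC-MS/MS with channel sums equalised. Thermal stability values, relative to control samples and from duplicates, are log2 fold changes.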

volasertib = compound: CC[C@@H]1C(=O)N(C)c2cnc(Nc3ccc(C(=O)N[C@H]4CC[C@H](N5CCN(CC6CC6)CC5)CC4)cc3OC)nc2N1C(C)C [volasertib]
Summary of the method: as §1

[2] = compound: CC[C@H](C)N1C=C(C2=C(C=C(C=C21)C3=CN=C(C=C3)N4CCNCC4)C(=O)NCC5=C(C=C(NC5=O)C)C)C
Summary of the method: as §1

epoxomicin = compound: CC[C@H](C)[C@@H](C(=O)N[C@@H]([C@@H](C)O)C(=O)N[C@@H](CC(C)C)C(=O)[C@]1(CO1)C)NC(=O)[C@H]([C@@H](C)CC)N(C)C(=O)C [epoxomicin]
Summary of the method: as §1

[3] = compound: CCn1c(C(=O)N(C2CC2)C2CC2)cc2c3c(ncn3C)c(Nc3cc(C)n(C)n3)nc21
Summary of the method: as §1

[4] = compound: CCn1cc(-c2ccnc3[nH]c(-c4cccc(CN(C)C)c4)cc23)c(-c2ccc(NC(=O)N(C)C)cc2)n1
Summary of the method: as §1

[5] = compound: CN(C)CC(=O)Nc1ccc2[nH]c(=O)c3ccccc3c2c1
Summary of the method: as §1

rosiglitazone = compound: CN(CCOC1=CC=C(C=C1)C[C@H]2C(=O)NC(=O)S2)C3=CC=CC=N3 (racemic) [rosiglitazone]
Summary of the method: as §1

[6] = compound: CN1C2=C(C3=C1C(=O)N(N=C3)CC4=CC(=CC=C4)N)SC(=C2)S(=O)C
Summary of the method: as §1

[7] = compound: CN1CCC(CNc2ccc3ncc(-c4cccc(OC(F)(F)F)c4)n3n2)CC1
Summary of the method: as §1

saracatinib = compound: CN1CCN(CCOc2cc(OC3CCOCC3)c3c(Nc4c(Cl)ccc5c4OCO5)ncnc3c2)CC1 [saracatinib]
Summary of the method: as §1

sotrastaurin = compound: CN1CCN(c2nc(C3=C(c4c[nH]c5ccccc45)C(=O)NC3=O)c3ccccc3n2)CC1 [sotrastaurin]
Summary of the method: as §1

alvocidib = compound: CN1CC[C@H](c2c(O)cc(O)c3c(=O)cc(-c4ccccc4Cl)oc23)[C@H](O)C1 [alvocidib]
Summary of the method: as §1

Tubastatin A = compound: CN1CCc2c(c3ccccc3n2Cc2ccc(C(=O)NO)cc2)C1 [Tubastatin A]
Summary of the method: as §1

[8] = compound: CNC(=O)C1=CC=CC=C1NC2=NC(=NC=C2Cl)NC3=C(C=C(C=C3)N4CCOCC4)OC
Summary of the method: as §1

defactinib = compound: CNC(=O)c1ccc(Nc2ncc(C(F)(F)F)c(NCc3nccnc3N(C)S(C)(=O)=O)n2)cc1 [defactinib]
Summary of the method: as §1

rucaparib = compound: CNCc1ccc(-c2[nH]c3cc(F)cc4c3c2CCNC4=O)cc1 [rucaparib]
Summary of the method: as §1

[9] = compound: CNc1nc(-c2ccc3c(N)n[nH]c3c2)cc(N2C[C@@H](C(=O)NC3CCCCC3)CC[C@H]2C)n1
Summary of the method: as §1

encorafenib = compound: COC(=O)N[C@@H](C)CNc1nccc(-c2cn(C(C)C)nc2-c2cc(Cl)cc(NS(C)(=O)=O)c2F)n1 [encorafenib]
Summary of the method: as §1

[10] = compound: COC(=O)[C@H](CCSC)NC(=O)C1=C(C=C(C=C1)NC[C@H](CS)N)C2=CC=CC=C2
Summary of the method: as §1

Measured: log2 fold change

PRDX4 (UniProt Q13162)
inactive: [1] -0.001 | volasertib 0.055 | [2] -0.063 | epoxomicin 0.008 | [3] -0.001 | [4] -0.011 | [5] 0.007 | rosiglitazone -0.005 | [6] -0.07 | [7] 0.005 | saracatinib -0.017 | sotrastaurin 0.006 | alvocidib -0.031 | Tubastatin A -0.032 | [8] -0.001 | defactinib -0.016 | rucaparib 0.048 | [9] -0.035 | encorafenib 0.011 | [10] 0.022

PPP6R3 isoform 5 (UniProt Q5H9R7)
inactive: [1] 0.002 | volasertib -0.09 | [2] 0.001 | epoxomicin 0.022 | [3] 0.012 | [4] 0.006 | [5] 0.008 | rosiglitazone -0.007 | [6] -0.05 | [7] -0.039 | saracatinib 0.061 | sotrastaurin 0.002 | alvocidib -0.05 | Tubastatin A -0.02 | [8] -0.014 | defactinib -0.046 | rucaparib -0.013 | [9] -0.019 | encorafenib -0.007 | [10] 0.015

PRAME (UniProt P78395)
inactive: [1] 0.028 | volasertib -0.144 | [2] 0.137 | epoxomicin 0.128 | [3] 0.037 | [4] -0.011 | [5] 0.015 | rosiglitazone -0.014 | [6] 0.091 | [7] 0.103 | saracatinib -0.066 | sotrastaurin -0.025 | alvocidib -0.06 | Tubastatin A 0.156 | [8] -0.02 | defactinib -0.067 | rucaparib 0.047 | [9] -0.023 | encorafenib 0.099 | [10] -0.003

PPME1 (UniProt Q9Y570)
inactive: [1] 0.001 | volasertib -0.092 | [2] 0.017 | epoxomicin 0.019 | [3] -0.024 | [4] -0.007 | [5] -0.037 | rosiglitazone 0.027 | [6] -0.087 | [7] -0.019 | saracatinib -0.004 | sotrastaurin 0.013 | alvocidib -0.043 | Tubastatin A -0.006 | [8] 0.021 | defactinib -0.066 | rucaparib -0.063 | [9] -0.029 | encorafenib -0.001 | [10] 0.013

PRDX1 (UniProt Q06830)
inactive: [1] -0.011 | volasertib 0.099 | [2] -0.009 | epoxomicin 0.003 | [3] 0.021 | [4] -0.021 | [5] 0.014 | rosiglitazone 0.03 | [6] -0.046 | [7] -0.052 | saracatinib 0.003 | sotrastaurin 0.02 | alvocidib -0.032 | Tubastatin A -0.012 | [8] -0.015 | defactinib -0.013 | rucaparib 0.202 | [9] -0.016 | encorafenib -0.01 | [10] 0.022

PPP1R18 (UniProt Q6NYC8)
inactive: [1] 0.045 | volasertib -0.094 | [2] 0.078 | epoxomicin -0.038 | [3] -0.043 | [4] -0.008 | [5] 0.006 | rosiglitazone 0.042 | [6] -0.036 | [7] 0.077 | saracatinib 0.013 | sotrastaurin -0.028 | alvocidib -0.073 | Tubastatin A 0.026 | [8] -0.01 | defactinib -0.148 | rucaparib 0 | [9] -0.046 | encorafenib 0.007 | [10] -0.055

PPP4R2 (UniProt Q9NY27)
inactive: [1] -0.016 | volasertib -0.064 | [2] 0.009 | epoxomicin 0.035 | [3] -0.108 | [4] -0.047 | [5] 0.002 | rosiglitazone 0.004 | [6] -0.061 | [7] -0.033 | saracatinib 0.042 | sotrastaurin 0.021 | alvocidib -0.035 | Tubastatin A -0.001 | [8] 0.054 | defactinib -0.124 | rucaparib 0 | [9] -0.079 | encorafenib 0.008 | [10] 0.063

PPP1CB (UniProt P62140)
inactive: [1] -0.006 | volasertib -0.056 | [2] 0.061 | epoxomicin 0.014 | [3] -0.015 | [4] -0.026 | [5] 0.012 | rosiglitazone 0.036 | [6] -0.073 | [7] -0.073 | saracatinib 0.015 | sotrastaurin 0.024 | alvocidib -0.05 | Tubastatin A 0.008 | [8] -0.047 | defactinib -0.121 | rucaparib -0.052 | [9] -0.028 | encorafenib 0.002 | [10] -0.022

Fetched one by one from the list above (two):
PPME1 (UniProt Q9Y570)
inactive: [1] 0.001 | volasertib -0.092 | [2] 0.017 | epoxomicin 0.019 | [3] -0.024 | [4] -0.007 | [5] -0.037 | rosiglitazone 0.027 | [6] -0.087 | [7] -0.019 | saracatinib -0.004 | sotrastaurin 0.013 | alvocidib -0.043 | Tubastatin A -0.006 | [8] 0.021 | defactinib -0.066 | rucaparib -0.063 | [9] -0.029 | encorafenib -0.001 | [10] 0.013

PPP1CB (UniProt P62140)
inactive: [1] -0.006 | volasertib -0.056 | [2] 0.061 | epoxomicin 0.014 | [3] -0.015 | [4] -0.026 | [5] 0.012 | rosiglitazone 0.036 | [6] -0.073 | [7] -0.073 | saracatinib 0.015 | sotrastaurin 0.024 | alvocidib -0.05 | Tubastatin A 0.008 | [8] -0.047 | defactinib -0.121 | rucaparib -0.052 | [9] -0.028 | encorafenib 0.002 | [10] -0.022

(listing goes on)

PRRC2C isoform 7 (UniProt Q9Y520)
inactive: [1] 0.165 | volasertib 0.215 | [2] -0.017 | epoxomicin -0.133 | [3] -0.015 | [4] 0.16 | [5] -0.068 | rosiglitazone -0.088 | [6] 0.178 | [7] 0.235 | saracatinib -0.012 | sotrastaurin 0.034 | alvocidib 0.21 | Tubastatin A 0.035 | [8] -0.011 | defactinib 0.165 | rucaparib 0.199 | [9] 0.042 | encorafenib 0.061 | [10] 0.03

PPP2CB (UniProt P62714)
inactive: [1] 0.018 | volasertib 0.021 | [2] -0.023 | epoxomicin -0.027 | [3] -0.024 | [4] 0.015 | [5] -0.033 | rosiglitazone -0.008 | [6] -0.051 | [7] 0.034 | saracatinib 0.035 | sotrastaurin 0.044 | alvocidib -0.01 | Tubastatin A -0.019 | [8] -0.017 | defactinib 0 | rucaparib -0.027 | [9] -0.036 | encorafenib 0.006 | [10] 0.051

PRPF18 (UniProt Q99633)
inactive: [1] 0.089 | volasertib -0.026 | [2] 0.021 | epoxomicin 0.077 | [3] -0.021 | [4] -0.148 | [5] -0.002 | rosiglitazone 0.039 | [6] -0.138 | [7] -0.076 | saracatinib 0.096 | sotrastaurin -0.054 | alvocidib -0.066 | Tubastatin A 0.116 | [8] -0.038 | defactinib -0.098 | rucaparib -0.121 | [9] 0.131 | encorafenib 0.058 | [10] 0.002

PRKRIP1 (UniProt Q9H875)
inactive: [1] 0.153 | volasertib 0.132 | [2] -0.013 | epoxomicin -0.046 | [3] -0.031 | [4] 0 | [5] -0.03 | rosiglitazone -0.013 | [6] 0.031 | [7] 0.102 | saracatinib 0.09 | sotrastaurin -0.059 | alvocidib 0.05 | Tubastatin A -0.033 | [8] -0.047 | defactinib 0.155 | rucaparib 0.053 | [9] -0.033 | encorafenib -0.007 | [10] 0.032

PRKCI (UniProt P41743)
inactive: [1] 0.051 | volasertib -0.141 | [2] 0.033 | epoxomicin -0.018 | [3] 0.002 | [4] -0.097 | [5] 0.076 | rosiglitazone 0.046 | [6] -0.079 | [7] -0.041 | saracatinib 0.008 | sotrastaurin -0.022 | alvocidib -0.019 | Tubastatin A 0.008 | [8] 0.069 | defactinib -0.039 | rucaparib 0.001 | [9] -0.08 | encorafenib 0.014 | [10] -0.051

PRSS21 (UniProt Q9Y6M0)
inactive: [1] 0.005 | volasertib -0.02 | [2] 0 | epoxomicin -0.01 | [3] -0.03 | [4] -0.003 | [5] -0.051 | rosiglitazone -0.004 | [6] -0.041 | [7] 0.066 | saracatinib -0.067 | sotrastaurin 0.03 | alvocidib -0.057 | Tubastatin A 0.049 | [8] 0.013 | defactinib 0.048 | rucaparib 0.008 | [9] 0.021 | encorafenib 0.048 | [10] -0.002

PRDX3 (UniProt P30048)
inactive: [1] 0.087 | volasertib 0.06 | [2] -0.036 | epoxomicin -0.027 | [3] 0.056 | [4] -0.014 | [5] -0.028 | rosiglitazone -0.025 | [6] 0.002 | [7] 0.134 | saracatinib -0.003 | sotrastaurin -0.003 | alvocidib 0.007 | Tubastatin A -0.019 | [8] 0.033 | defactinib -0.003 | rucaparib -0.061 | [9] 0.027 | encorafenib -0.027 | [10] 0.024

PPP1CC isoform 2 (UniProt P36873)
inactive: [1] 0.022 | volasertib 0.021 | [2] 0.024 | epoxomicin -0.024 | [3] -0.027 | [4] -0.001 | [5] 0.002 | rosiglitazone 0.014 | [6] -0.091 | [7] 0 | saracatinib 0.007 | sotrastaurin 0.03 | alvocidib -0.043 | Tubastatin A -0.021 | [8] -0.056 | defactinib -0.006 | rucaparib -0.019 | [9] -0.022 | encorafenib -0.015 | [10] -0.016
